Experimental data from publication PMC8275761.
No constants are given. Whether binding was seen depends on the method and setting. A result given as binding can be weak or reduced; the word gives no strength.

Chains of the proteins cited; added tags and fusions are not shown. Lines headed by an entry give the natural chain unless they say otherwise; changes in a name come on top.
UniProt Q6NVH7: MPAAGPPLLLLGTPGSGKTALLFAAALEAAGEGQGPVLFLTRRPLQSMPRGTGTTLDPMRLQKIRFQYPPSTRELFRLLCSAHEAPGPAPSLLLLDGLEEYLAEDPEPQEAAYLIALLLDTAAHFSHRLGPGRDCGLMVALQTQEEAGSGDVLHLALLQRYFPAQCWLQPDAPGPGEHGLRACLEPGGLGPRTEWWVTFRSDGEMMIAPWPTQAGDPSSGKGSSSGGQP
UniProt Q06609: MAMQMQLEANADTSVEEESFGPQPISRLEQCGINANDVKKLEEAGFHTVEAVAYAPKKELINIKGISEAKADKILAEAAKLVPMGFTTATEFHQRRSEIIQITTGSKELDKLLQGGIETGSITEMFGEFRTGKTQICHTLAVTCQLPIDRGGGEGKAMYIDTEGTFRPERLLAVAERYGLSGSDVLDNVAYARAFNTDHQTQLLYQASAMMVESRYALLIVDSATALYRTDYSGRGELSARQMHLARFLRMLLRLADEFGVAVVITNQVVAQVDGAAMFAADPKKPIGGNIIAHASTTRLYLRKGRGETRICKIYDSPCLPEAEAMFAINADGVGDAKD

Assays:
[1] = biological target: MBP-SWSAP1-His (human short) (human) (UniProt Q6NVH7); assay: pull-down; RAD51 and MBP-SWSAP1 each at 0.4 µM in buffer B (100 mM KCl, 40 mM Tris pH 7.5, 0.05% Triton X-100, 100 µg/mL acetylated BSA), 20 min at 37 °C; anti-MBP magnetic beads 1 h at 37°C; SDS–PAGE with Coomassie blue or silver staining; both purified
[2] = biological target: pGBD-SWSAP1 short isoform (human) (UniProt Q6NVH7); assay: two-hybrid; S. cerevisiae PJ69-4A; pGAD-SWS1 with pGBD-SWSAP1 short or long; spotted on SC-LEU-TRP-HIS, SC-LEU-TRP-HIS + 3AT or SC-LEU-TRP-ADE, 2 days at 30°C

binding [1] | binding [2] | Molecule
binds |  | Untagged human RAD51 (from UniProt Q06609 1-339)
 | binds | pGAD-SWS1 (protein, UniProt Q19AV6 1-140) MAVVLPAVVEELLSEMAAAVQESARIPDEYLLSLKFLFGSSATQALDLVDRQSITLISSPSGRRVYQVLGSSSKTYTCLASCHYCSCPAFAFSVLRKSDSILCKHLLAVYLSQVMRTCQQLSVSDKQLTDILLMEKKQEA
